One may read the AC50 as the concentration at which the activity in the assay is half-maximal. High values mean activity only at high concentration, low ones activity at low concentration.

This assay can be described thus: qHTS Assay for Lipid Storage Modulators in Drosophila S3 Cells.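 As to cell number change: cells counted by Cell Tracker Red CMTPX staining in the red channel.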 As to conditions: BODIPY lipid droplet fluorescence, 18-24 h; for cell number change: measured here: cell count max response, cells fed with added oleic acid. The essentials: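 Drosophila S3 cells loaded with oleic acid (400 uM, as added) and compounds at several concentrations; lipid droplets imaged by 488-nm laser-scanning cytometry, 500–530 nm intensity and object ratio to cell channel. Percent activity normalized to 20 uM Triacsin C.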
Background: Quantitative high-throughput screening tests each substance at several concentrations.

[1] abbreviates: measured here: cell number channel AC50, cells fed with added oleic acid.
The mark [2] stands for this setting: measured here: lipid fluorescence (Fed channel) AC50, cells fed with added oleic acid.

Each structure is given as a SMILES string. The list shows a part of the results. The main result of the screen is listed elsewhere. These columns were measured beside it and carry no call. The list favours compounds with an active or inconclusive main result. Potencies come from curve fits of mixed quality, noted in brackets.

With `NCCCC(=O)N1c2ccccc2Sc2ccccc21`, the cell number change was -31.6%. Besides, under setting [1], the AC50 is 2.31 µM [falling, single point]. For the same compound, under setting [2], the AC50 is 3.26 µM [falling, single point].
For the compound `CC(C)[C@H](NC(=O)OCc1ccccc1)C(=O)OCC(=O)Nc1ccc(N2CCOCC2)cc1`, the cell number change is -9.78%. For the same compound, the half-maximal activity concentration (AC50) under setting [2] is 6.51 µM [falling, single point].
Consider `O=C1C2C3C=CC(C4CC34)C2C(=O)N1/N=C/c1ccc(-c2cccc([N+](=O)[O-])c2)o1` (stereo unspecified), for which the cell number change was -5.24%. In addition, the AC50 under setting [2] was 0.013 µM [rising, full curve].
In the case of `COc1ccc(Cc2nnc(NC(=O)C(C)C)s2)cc1`, the cell number change was 3.84%. In addition, under setting [1], the AC50 is 0.517 µM [falling, full curve, poor fit].
With `C(#Cc1ccccc1)CN1CCCCC1`, the cell number change was 10.6%. Further, the AC50 under setting [2] was 0.00651 µM [falling, full curve, poor fit].
In the case of `CC(=O)Nc1ccc(NS(=O)(=O)c2cn(C)c(=O)n(C)c2=O)cc1`, the cell number change was -7.06%. The AC50 under setting [2] was 0.231 µM [falling, full curve, poor fit].
For `COc1cccc(N2C(=O)C3C(C2=O)C2C=CC3C23CC3)c1` (stereo unspecified), the cell number change was -78.2%. Moreover, the half-maximal activity concentration (AC50) under setting [1] is 20.6 µM [falling, partial curve]. Moreover, the concentration at half-maximal activity (AC50) under setting [2] is 0.651 µM [falling, single point].
`CC(C)[C@H](NS(=O)(=O)c1cccc(Cl)c1)C(=O)OCC(=O)N1CCN(c2ccccc2)CC1`: the cell number change worked out at 9.95%. Under setting [2], the concentration at half-maximal activity (AC50) was 29.1 µM [falling, single point].
Turning to `CCO[C@H]1OC(C(=O)N2CCN(Cc3ccc4c(c3)OCO4)CC2)=C[C@@H](c2csc3ccccc23)[C@@H]1CCCO`, the cell number change was -24.4%. Further, under setting [2], the AC50 is 29.1 µM [falling, single point].
Consider `COc1cccc(C2C3=C(N=C4SCC(=O)N42)c2ccccc2CC3)c1OC` (stereo unspecified), for which the cell number change was -15.5%.
Same read-out and setting: as for `Cc1ccc(OC(=O)COc2ccccc2)c(-n2nc3ccccc3n2)c1`, the figure is -3.42%.
Consider `CCCCN(C)CCNC(=S)Nc1ccc2nc(N3CCN(CC)CC3)cc(C)c2c1`, for which the cell number change amounted to 9.01%. The half-maximal activity concentration (AC50) under setting [2] is 29.1 µM [rising, single point].
Regarding `CCN(CC(=O)Nc1ccccc1OC)C(=O)c1cc(S(=O)(=O)N2CCCCCC2)ccc1OC`, the cell number change was found to be 81.5%. In addition, the concentration at half-maximal activity (AC50) under setting [1] is 16.4 µM [rising, single point].
`NNC(=O)c1ccc(CSc2cccc3cccnc23)cc1`: the cell number change is -8.55%.
For `Cc1cc(C)c2oc(C(=O)NC3CCS(=O)(=O)C3)cc(=O)c2c1` (stereo unspecified), the cell number change is -16.5%. Moreover, under setting [2], the AC50 was 29.1 µM [falling, single point].
Take `COc1ccc(-c2noc(CCC(=O)Nc3cc(Cl)c(OC)cc3OC)n2)cc1`: the half-maximal activity concentration (AC50) under setting [1] is 4.11 µM [rising, single point] and the AC50 under setting [2] is 2.91 µM [rising, partial curve].
`O=C(COc1ncnc2ccccc12)N1CCOCC1`: the cell number change was -24.5%. Besides, the AC50 under setting [2] is 25.9 µM [falling, single point].
Consider `O=C(CSc1nnc(CNC(=O)c2ccccc2)o1)NCCc1ccccc1`, for which the cell number change was -31.1%. For the same compound, under setting [1], the half-maximal activity concentration (AC50) was 0.103 µM [falling, full curve, poor fit].
Take `CC(=O)c1ccc(NC(=O)c2ccc(-n3cncn3)c([N+](=O)[O-])c2)cc1`: the cell number change is -29.6%. In addition, the half-maximal activity concentration (AC50) under setting [1] was 0.00461 µM [falling, full curve, poor fit].
As for `COc1ccc(NC(=O)CSCC(=O)NCc2cccc(C(F)(F)F)c2)cc1`, the cell number change was 8.18%. Further, the AC50 under setting [2] is 0.13 µM [falling, partial curve].
As for `O=C(CN(CC1CCCO1)C(=O)CNS(=O)(=O)c1ccc(Cl)cc1)NCc1ccco1` (stereo unspecified), the cell number change stood at 14.1%. Further, the AC50 under setting [1] was 0.092 µM [rising, full curve, poor fit]. Under setting [2], the AC50 is 0.116 µM [falling, single point].
On to `O=[N+]([O-])c1ccccc1S(=O)(=O)N1CCN(c2ccccn2)CC1`, for which the cell number change is -17.5%.
In the case of `CC(C)C(=O)OC/C(O)=C(\C#N)c1nc2ccccc2[nH]1`, the cell number change amounted to 10.5%. Also, under setting [1], the AC50 is 0.00461 µM [falling, full curve, poor fit].
As to `Cc1ccc(S(=O)(=O)N(C)C)cc1NC(=S)NCCCn1ccnc1`, the cell number change is -8.25%.
For `CSc1ccc(S(=O)(=O)NCC(=O)OCC(=O)N2CCCC2=O)cc1[N+](=O)[O-]`, the cell number change was 124%. Further, the concentration at half-maximal activity (AC50) under setting [1] is 20.6 µM [rising, partial curve]. The concentration at half-maximal activity (AC50) under setting [2] is 0.103 µM [rising, full curve, poor fit].
`CC12CCC(=O)N1C(C(=O)NNC(=O)c1ccccc1Cl)CS2` (stereo unspecified): the cell number change was 18.9%. Under setting [2], the AC50 is 29.1 µM [falling, single point].
Take `Cc1ccccc1NS(=O)(=O)c1cc2c3c(c1)CC(=O)N3CCC2`: the cell number change stood at 29.7%. Besides, the half-maximal activity concentration (AC50) under setting [2] is 0.13 µM [falling, single point].
With `CCCN(CCC)C(=O)c1c(C)[nH]c(C(=O)OCC)c1C`, the cell number change turned out to be 9.62%. Besides, the AC50 under setting [2] was 2.91 µM [rising, single point].
As for `COc1cc(C2SCC(=O)N2CCN2CCCCC2)ccc1O` (stereo unspecified), the cell number change stood at 9.55%. Under setting [2], the half-maximal activity concentration (AC50) is 0.116 µM [rising, full curve, poor fit].
`Cc1ccc(-c2cc(N)n[nH]2)cc1`: the cell number change is 24.7%. The AC50 under setting [1] was 1.64 µM [rising, full curve, poor fit]. Also, the AC50 under setting [2] was 20.6 µM [rising, single point].
With `CCC(CC)c1nnc(NC(=O)CCNC(=O)c2ccccc2Cl)s1`, the cell number change is 62%. The AC50 under setting [1] was 29.1 µM [rising, single point]. Besides, the AC50 under setting [2] is 16.4 µM [rising, single point].
For the compound `CCOC(=O)/C(C#N)=C/c1cn(CCC(=O)O)nc1-c1cccc(Br)c1`, the cell number change is -12.6%. Also, under setting [2], the AC50 was 0.00461 µM [falling, full curve, poor fit].
Consider `COc1ccc(C(=O)/C=C2/c3ccccc3CC(C)(C)N2C)cc1`, for which the cell number change stood at 3.22%. Besides, the half-maximal activity concentration (AC50) under setting [2] was 29.1 µM [rising, single point].
Take `CCC(=O)NC(c1ccc(C)cc1)c1cc([N+](=O)[O-])c2cccnc2c1O` (stereo unspecified): the cell number change is 5.8%. The half-maximal activity concentration (AC50) under setting [1] is 4.11 µM [falling, single point]. Further, the AC50 under setting [2] was 3.26 µM [falling, single point].
`CC(C)[C@H](NC(=O)NCCC1=CCCCC1)C(=O)O`: the cell number change is 15.3%. The AC50 under setting [2] is 4.61 µM [falling, partial curve].
For the compound `O=C(O)CC(C(=O)OCCOc1ccccc1)N1CCOCC1` (stereo unspecified), the cell number change is -7.82%. The AC50 under setting [2] was 6.51 µM [falling, single point].
Regarding `O=C(CN1CCN(c2ccc(F)cc2)CC1)Nc1nnc(-c2ccccc2)s1`, the cell number change is 24.1%. Also, under setting [2], the concentration at half-maximal activity (AC50) is 2.91 µM [rising, partial curve, poor fit].

These data come from PubChem BioAssay AID2685 (National Center for Advancing Translational Sciences (NCATS), 2010).
